These are yes or no findings as the source states them, for the method shown. In cells and extracts the contact can be indirect. Some results given as binding are weak or reduced against the parent protein; the word gives no strength.

The text below walks through data of PMC6949240.

The assay concerns the target APE1 (apurinic/apyrimidinic endonuclease 1), detected in cells with an anti-APE1 antibody (human (endogenous in HeLa, JHH-6, A549)) (UniProt P27695). In words: proximity ligation; Duolink PLA in HeLa cells on glass coverslips with anti-APE1 and anti-SFPQ, anti-DHX9 or anti-hnRNPK antibodies; confocal microscopy.

“hnRNPK (heterogeneous nuclear ribonucleoprotein K) (from UniProt P61978 1-463)”: the binding entry is recorded as “binds”.
